Values from PubChem BioAssay AID1159578 (Peter MacCallum Cancer Centre, 2015)
Shown is a random part of about 18,000 reagents tested. About 1,030 of all reagents (5.7%) were called active. 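Inactive calls also include pools with fewer than 3300 nuclei, whose migration was not assessed.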 Raw values are not corrected between plates. A number with no mark means an inactive call. Not all columns of the deposit are shown.

Test: 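Genome-wide hunt for genes controlling movement of lymphatic endothelial cells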 (primary screen)
Cell system: human lymphatic endothelial cells
Knock-down reagent: siRNA pool against human genes, 40 nM
Time to read-out: 48 h after transfection
Measured: 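High-content imaging of dye-stained cells in a scratch assay measures filled wound area and nuclei per well; duplicate means given as ratio to mock and robust z-score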
Scale: migration robust z-score: higher = faster migration into the scratch; nuclei per well: higher = more cells in the well
Hit rule: 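Pools averaging fewer than 3300 nuclei are never called; remaining pools count as changed when migration robust z lies outside -2 to 2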
Meaning of the calls: active = migration changed; inactive = no migration change, or too few cells

gene knocked down | migration robust z-score | nuclei per well, duplicate mean
LINC02913 | -0.06 | 6500
PPIAL4A | 2.05 (active) | 6931
HS6ST3 | -0.39 | 5867
LYG1 | 0.8 | 6162
CDC23 | 0.28 | 5662
TRIM43 | 0.57 | 5536
TRIM34 | -0.88 | 5432
KCNN4 | 0.54 | 5445
BMP8A | 1.27 | 6659
TRAPPC6A | -0.13 | 6569
MGAT4B | 0.91 | 4874
ABCA10 | -0.72 | 6890
CCDC148 | -0.96 | 5808
SPMIP4 | -0.92 | 5456
NCAPG | 0.26 | 5806
ZWILCH | -2.15 (active) | 6675
DMP1 | 0.7 | 6269
POMGNT1 | -0.54 | 5388
TRPM4 | 0.39 | 5122
OPHN1 | -1.19 | 5418
H3C1 | -1.5 | 5512
MINDY1 | -0.88 | 6046
DLEU7 | -0.82 | 6335
GCNT2 | -0.68 | 4926
ASB2 | 0.21 | 5336
RGN | 0.18 | 5538
DDI1 | -1.35 | 3667
CMTR1 | 0.85 | 6116
SEC11B | -1.87 | 4179
TAL1 | 0.2 | 6754
TMEM102 | -0.09 | 7032
NCOA2 | 1.58 | 6040
CEP250 | -0.75 | 4468
TRIM17 | -0.78 | 4990
CEP55 | 2.19 (active) | 5872
HIGD2A | -2 | 7232
MRE11 | 0.86 | 5026
CDC7 | 0.24 | 5186
FAAP100 | -0.36 | 7319

Not a retest: 6 of the entries above.
gene knocked down | migration robust z-score | nuclei per well, duplicate mean
CEP250 | -0.75 | 4468
TRIM17 | -0.78 | 4990
CEP55 | 2.19 (active) | 5872
HIGD2A | -2 | 7232
MRE11 | 0.86 | 5026
CDC7 | 0.24 | 5186
